Measured values taken from patent US8993007B2, “Preparation used for anti-tachyarrhythmia and its preparation method” (Heshengyuan of Chinese Medicine Research & Development …, priority 2012, dated 2015).
At least one structure is not confirmed: it was looked up by name or label, or the drawing left a doubt.

Tested on: CD mice
Assay: CaCl2-induced arrhythmia, efficacy screening test
Type: in vivo
Conditions: judged by duration of arrhythmia against model and amiodarone (positive) group
Method: 90 CD mice, male, weighing 28-30 g, Beijing Vital River Laboratory Animal Technology Co., license number Sea (Beijing) 2006-0009. […] Before administration each drug was prepared to the desired concentration with physiological saline, duodenal route of administration, the dose of 10 mL/kg. […] Observed ECG whether induced arrhythmia, recorded the duration of ventricular arrhythmia; and the results were statistically analyzed.

COc1cc2c(cc1OC)[C@@H]1Cc3ccc(OC)c(OC)c3CN1CC2 [Sample6, Tetrahydropalmatine]
pharmacodynamic effect (efficacy in words): medium
